This passage reports binding results from publication PMC12455967.

Protein sequences, listed by entry. Tags and fused reporters are not part of them.
UniProt Q86WV6: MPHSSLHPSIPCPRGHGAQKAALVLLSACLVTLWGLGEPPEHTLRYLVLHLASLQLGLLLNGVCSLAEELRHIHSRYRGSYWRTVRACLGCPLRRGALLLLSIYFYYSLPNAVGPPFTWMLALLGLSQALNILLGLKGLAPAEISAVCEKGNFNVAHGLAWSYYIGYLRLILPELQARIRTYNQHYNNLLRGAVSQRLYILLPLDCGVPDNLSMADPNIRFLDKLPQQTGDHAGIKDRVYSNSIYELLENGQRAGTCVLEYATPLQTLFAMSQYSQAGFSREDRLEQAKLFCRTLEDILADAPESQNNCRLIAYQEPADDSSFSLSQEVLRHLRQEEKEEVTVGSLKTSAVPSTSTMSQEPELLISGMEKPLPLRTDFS
UniProt F1SMI2: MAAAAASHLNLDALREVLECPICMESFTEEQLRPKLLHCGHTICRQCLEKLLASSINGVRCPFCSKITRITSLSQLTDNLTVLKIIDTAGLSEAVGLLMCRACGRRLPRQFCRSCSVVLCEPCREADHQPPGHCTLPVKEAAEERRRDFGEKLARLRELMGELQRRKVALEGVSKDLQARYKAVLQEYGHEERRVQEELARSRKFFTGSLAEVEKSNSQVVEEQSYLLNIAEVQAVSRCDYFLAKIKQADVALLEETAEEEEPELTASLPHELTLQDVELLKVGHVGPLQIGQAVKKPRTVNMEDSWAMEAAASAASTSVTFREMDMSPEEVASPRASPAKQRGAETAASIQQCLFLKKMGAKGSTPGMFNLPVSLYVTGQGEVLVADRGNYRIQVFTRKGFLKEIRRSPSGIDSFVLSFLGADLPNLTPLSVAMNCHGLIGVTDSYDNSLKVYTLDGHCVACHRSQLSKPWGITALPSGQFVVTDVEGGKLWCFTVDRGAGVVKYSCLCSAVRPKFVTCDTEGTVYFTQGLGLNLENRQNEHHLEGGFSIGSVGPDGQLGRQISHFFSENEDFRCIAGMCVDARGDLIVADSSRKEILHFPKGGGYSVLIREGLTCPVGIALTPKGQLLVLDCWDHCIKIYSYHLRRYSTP

Results are given in words; binding and its absence hold for the method and conditions named. In cells and extracts the contact can be indirect. Some results given as binding are weak or reduced against the parent protein; the word gives no strength.

The assay concerns the target STING (UniProt Q86WV6). Put plainly: co-IP; BHK-21 cells cotransfected with the indicated plasmids for 24 h; anti-myc or anti-Flag magnetic beads; Western blot. In general terms: In western blotting, separated proteins are transferred to a membrane and probed.

For the substance “TRIM32 (as used in the co-IP with STING, Fig. 7B-D) (from UniProt F1SMI2 1-652)”, the binding result was “binds”.
